This is an account of results in US20100061938A1, “MRI TRACKABLE DRUG DELIVERY PARTICLES, USES AND METHODS THEREOF” (EPITARGET AS, priority 2006, published 2010).

SMILES strings stand for the structures.

This data set can be described thus: T1 relaxation times of gel phantom samples by MR at 1.5 T, pre/post ultrasound and surfactant. As to conditions: 1 mM non-liposomal control solution.

With `CNC(=O)CN(CCN(CCN(CC(=O)[O-])CC(=O)NC)CC(=O)[O-])CC(=O)[O-].[Dy+3]` [DyDTPA-BMA], the T1 runs as follows: (POST US+ surfactant) 978 ms; (POST US) 937 ms; (PRE US) 923 ms.

For `CNC(=O)CN(CCN(CCN(CC(=O)[O-])CC(=O)NC)CC(=O)[O-])CC(=O)[O-].[Gd+3]` [GdDTPA-BMA], the T1 runs as follows: (POST US+ surfactant) 146 ms; (POST US) 139 ms; (PRE US) 137 ms.
